This assay addresses HA-tagged HSP90A (UniProt P07900). Put plainly: co-IP; lysates (NP-40 lysis buffer) of cells cotransfected with HA-HSP90, EGFP-PRMT5 (wild type or mutant) and/or Flag-MEP50 in different combinations; precipitated with anti-HA, anti-GFP or anti-Flag antibodies and Protein G Sepharose, 4 °C overnight; western blot; 293T cells are named for Figure 2A and S2A. In general terms: A western blot detects proteins with antibodies after separation by electrophoresis.

These are yes or no findings as the source states them, for the method shown. Binding seen in cells or lysates may run through a third protein. Some results given as binding are weak or reduced against the parent protein; the word gives no strength.

Data on 1 substance can be found in paper PMC10932150.

“EGFP-tagged PRMT5 (wild type) (from UniProt O14744 1-637) (enzyme)”: the binding result is reported as “binds”.
